Data: the supplement of paper PMC10849652
The list shows a part of the results.

Amino acid sequences for entries named in this document (tags omitted). A change or cut given only in a name is not applied to a line headed by its entry.
UniProt Q9NP81: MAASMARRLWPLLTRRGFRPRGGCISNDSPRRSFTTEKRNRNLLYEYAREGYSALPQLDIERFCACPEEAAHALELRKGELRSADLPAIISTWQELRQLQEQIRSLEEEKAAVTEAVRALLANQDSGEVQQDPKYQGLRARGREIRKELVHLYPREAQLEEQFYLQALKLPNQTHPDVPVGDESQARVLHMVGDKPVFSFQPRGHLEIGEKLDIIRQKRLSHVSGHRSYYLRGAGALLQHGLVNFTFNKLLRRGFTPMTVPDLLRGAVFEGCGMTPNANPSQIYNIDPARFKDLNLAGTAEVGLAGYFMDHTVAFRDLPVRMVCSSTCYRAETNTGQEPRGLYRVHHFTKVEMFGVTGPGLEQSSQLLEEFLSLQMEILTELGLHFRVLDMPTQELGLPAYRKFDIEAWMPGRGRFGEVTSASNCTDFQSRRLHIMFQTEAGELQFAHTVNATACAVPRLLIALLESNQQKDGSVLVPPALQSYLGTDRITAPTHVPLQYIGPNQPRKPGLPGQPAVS

Columns and labels:
Assay in all cases: log2 fold change, soluble protein after heating vs DMSO (PISA); higher = thermal stabilisation; K562 cells, 10 uM, 30 min; active = over 0.2 and 3.5 SD of the protein, either way, in both replicates (recomputed)
[1] = compound: CNC(=O)c1ccc(Nc2ncc(C(F)(F)F)c(NCc3nccnc3N(C)S(C)(=O)=O)n2)cc1 [defactinib]
How it was run: (§1)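 K562 cells at 2×10^6 cells/mL were exposed to 10 μM compound for 30 min, then aliquots were heated for 3 min across 48°C-58°C, pooled, and extracted in PBS containing 0.5% NP-40 at 4°C. The supernatant after 21,000xg for 90 min was taken as soluble protein and measured by TMTpro 16plex LC-MS/MS with channel sums equalised. Thermal stability is reported relative to control samples, with values from duplicates. Fold changes are given on a log2 scale.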

[2] = compound: CNCc1ccc(-c2[nH]c3cc(F)cc4c3c2CCNC4=O)cc1 [rucaparib]
How it was run: as §1

[3] = compound: CNc1nc(-c2ccc3c(N)n[nH]c3c2)cc(N2C[C@@H](C(=O)NC3CCCCC3)CC[C@H]2C)n1
How it was run: as §1

[4] = compound: COC(=O)N[C@@H](C)CNc1nccc(-c2cn(C(C)C)nc2-c2cc(Cl)cc(NS(C)(=O)=O)c2F)n1 [encorafenib]
How it was run: as §1

[5] = compound: COC(=O)[C@H](CCSC)NC(=O)C1=C(C=C(C=C1)NC[C@H](CS)N)C2=CC=CC=C2
How it was run: as §1

[6] = compound: COC1=CC=C(C=C1)CN2C=CC3=C2C=C(C=C3)C(=O)NO
How it was run: as §1

[7] = compound: CON(C)C(=O)N1N=C(c2cc(F)ccc2F)S[C@@]1(CCCN)c1ccccc1 [filanesib]
How it was run: as §1

[8] = compound: CO[C@H]1C[C@@H]2CC[C@@H](C)[C@@](O)(O2)C(=O)C(=O)N2CCCC[C@H]2C(=O)O[C@H]([C@H](C)C[C@@H]2CC[C@H](n3cnnn3)[C@H](OC)C2)CC(=O)[C@H](C)/C=C(\C)[C@@H](O)[C@@H](OC)C(=O)[C@H](C)C[C@H](C)/C=C/C=C/C=C/1C [zotarolimus]
How it was run: as §1

[9] = compound: COc1cc(C(=O)O)ccc1NC(=O)[C@@H]1N[C@@H](CC(C)(C)C)[C@](C#N)(c2ccc(Cl)cc2F)[C@H]1c1cccc(Cl)c1F [idasanutlin]
How it was run: as §1

[10] = compound: COc1cc(Nc2ncc3c(n2)-c2ccc(Cl)cc2C(c2c(F)cccc2OC)=NC3)ccc1C(=O)O [alisertib]
How it was run: as §1

[11] = compound: COc1cc2nc(-c3cc(F)ccc3O)nc(N[C@@H]3CNC[C@H]3C(C)(C)O)c2cc1OC
How it was run: as §1

[12] = compound: COc1cc2ncnc(Nc3ccc(F)c(Cl)c3)c2cc1OCCCN1CCOCC1 [gefitinib]
How it was run: as §1

[13] = compound: COc1cccc2cc(-c3nc([C@H]4CC[C@H](C(=O)O)CC4)n4ncnc(N)c34)[nH]c12
How it was run: as §1

[14] = compound: CS(=O)(=O)CCNCc1ccc(-c2ccc3ncnc(Nc4ccc(OCc5cccc(F)c5)c(Cl)c4)c3c2)o1 [lapatinib]
How it was run: as §1

[15] = compound: CS(=O)(=O)N1CCN(Cc2cc3nc(-c4cccc5[nH]ncc45)nc(N4CCOCC4)c3s2)CC1 [pictilisib]
How it was run: as §1

[16] = compound: CS(=O)(=O)c1ccc(-c2cnc(N)c(C(=O)Nc3ccccc3)n2)cc1
How it was run: as §1

[17] = compound: C[C@@H](Oc1cc(-c2cnn(C3CCNCC3)c2)cnc1N)c1c(Cl)ccc(F)c1Cl [crizotinib]
How it was run: as §1

[18] = compound: C[C@@H]1COCCN1C2=NC(=NC(=C2)C3(CC3)S(=O)(=O)C)C4=C5C=CNC5=CC=C4
How it was run: as §1

[19] = compound: C[C@H](C1=CC=C(C=C1)C(=O)NC2=C3C=CNC3=NC=C2)N
How it was run: as §1

[20] = compound: C[C@H](Nc1ncnc2nc[nH]c12)c1cc2cccc(Cl)c2c(=O)n1-c1ccccc1 [duvelisib]
How it was run: as §1

[21] = compound: Cc1cc(Nc2cc(CN3CCOCC3)c3nc(C)c(Cc4ccc(Cl)cc4F)n3n2)n[nH]1 [gandotinib]
How it was run: as §1

[22] = compound: Cc1cc(Nc2cc(N3CCN(C)CC3)nc(Sc3ccc(NC(=O)C4CC4)cc3)n2)n[nH]1 [tozasertib]
How it was run: as §1

[23] = compound: Cc1cc(SCc2sc(-c3ccc(C(F)(F)F)cc3)nc2C)ccc1OCC(=O)O
How it was run: as §1

[24] = compound: Cc1ccc(-n2nc(C(C)(C)C)cc2NC(=O)Nc2ccc(OCCN3CCOCC3)c3ccccc23)cc1 [doramapimod]
How it was run: as §1

[25] = compound: Cc1ccc(C(=O)N(CCCN)[C@@H](c2nc3cc(Cl)ccc3c(=O)n2Cc2ccccc2)C(C)C)cc1 [ispinesib]
How it was run: as §1

[26] = compound: Cc1ccc(NC(=O)c2ccc(CN3CC[C@H](N(C)C)C3)c(C(F)(F)F)c2)cc1Nc1nccc(-c2cncnc2)n1 [bafetinib]
How it was run: as §1

[27] = compound: Cc1cccc(CC(=O)N2CCc3c2ccc(-c2cn(C)c4ncnc(N)c24)c3F)n1
How it was run: as §1

[28] = compound: Cc1cn(-c2cc(NC(=O)c3ccc(C)c(Nc4nccc(-c5cccnc5)n4)c3)cc(C(F)(F)F)c2)cn1 [nilotinib]
How it was run: as §1

[29] = compound: Cc1nc(Nc2n[nH]c3c2CN(C(=O)N[C@H](CN(C)C)c2ccccc2)C3(C)C)c2sccc2n1
How it was run: as §1

[30] = compound: Cc1nc(Nc2ncc(C(=O)Nc3c(C)cccc3Cl)s2)cc(N2CCN(CCO)CC2)n1 [dasatinib]
How it was run: as §1

[31] = compound: Cc1ncc(-c2ccnc(Nc3ccc(S(C)(=O)=O)cc3)n2)n1C(C)C
How it was run: as §1

[32] = compound: Cc1sc2c(c1C)C(c1ccc(Cl)cc1)=N[C@@H](CC(=O)OC(C)(C)C)c1nnc(C)n1-2
How it was run: as §1

[33] = compound: Cn1cc(-c2ccc3c(c2)CCN3C(=O)Cc2cccc(C(F)(F)F)c2)c2c(N)ncnc21
How it was run: as §1

[34] = compound: Cn1cc(-c2ccc3nnc(C(F)(F)c4ccc5ncccc5c4)n3n2)cn1
How it was run: as §1

[35] = compound: Cn1cncc1[C@@](N)(c1ccc(Cl)cc1)c1ccc2c(c1)c(-c1cccc(Cl)c1)cc(=O)n2C [tipifarnib]
How it was run: as §1

[36] = compound: FC(F)(F)c1ccc(/C=C/c2nc(COc3ccc(CCCCn4ccnn4)cc3)co2)cc1 [mubritinib]
How it was run: as §1

[37] = compound: NC(=O)Nc1cc(-c2cccc(F)c2)sc1C(=O)N[C@H]1CCCNC1
How it was run: as §1

[38] = compound: NC(=O)c1cnc(N[C@@H]2CCCC[C@@H]2N)nc1Nc1cccc(-n2nccn2)c1
How it was run: as §1

[39] = compound: NC1(c2ccc(-c3nc4ccn5c(=O)[nH]nc5c4cc3-c3ccccc3)cc2)CCC1
How it was run: as §1

[40] = compound: NCC(=O)Nc1ccc(-n2nc(C(F)(F)F)cc2-c2ccc3c(ccc4ccccc43)c2)cc1
How it was run: as §1

[41] = compound: Nc1ccccc1NC(=O)c1ccc(CNC(=O)OCc2cccnc2)cc1 [entinostat]
How it was run: as §1

[42] = compound: O=C(CCCCCCC(=O)Nc1ccccc1)NO [vorinostat]
How it was run: as §1

[43] = compound: O=C(CCCCCCNC(=O)c1cnc(N(c2ccccc2)c2ccccc2Cl)nc1)NO [citarinostat]
How it was run: as §1

[44] = compound: O=C(O)c1ccc2c(c1)nc(Nc1cccc(Cl)c1)c1ccncc12 [silmitasertib]
How it was run: as §1

[45] = compound: O=C1NC(=O)C(c2cnc3ccccn23)=C1c1cn2c3c(cc(F)cc13)CN(C(=O)N1CCCCC1)CC2
How it was run: as §1

[46] = compound: c1cc(OCCN2CCCCC2)cc(-c2n[nH]c3ccc(-c4nnc[nH]4)cc23)c1
How it was run: as §1

[47] = compound: c1ccc([C@@H]2C[C@H]2NC2CCNCC2)cc1
How it was run: as §1

[48] = compound: c1cn2cc(-c3ccc4cn[nH]c4c3)nc(Nc3ccc(N4CCOCC4)cc3)c2n1 [entospletinib]
How it was run: as §1

Measured: log2 fold change

SARS2 (UniProt Q9NP81)
inactive: [1] -0.015 | [2] -0.035 | [3] -0.014 | [4] -0.007 | [5] 0.03 | [6] 0.002 | [7] -0.07 | [8] -0.013 | [9] -0.012 | [10] 0.023 | [11] -0.027 | [12] -0.002 | [13] -0.004 | [14] 0 | [15] -0.006 | [16] 0.038 | [17] -0.014 | [18] 0.009 | [19] -0.051 | [20] 0.03 | [21] -0.019 | [22] 0.011 | [23] -0.003 | [24] -0.034 | [25] -0.022 | [26] -0.018 | [27] 0.022 | [28] -0.012 | [29] -0.003 | [30] 0 | [31] 0 | [32] 0.004 | [33] 0.022 | [34] 0.015 | [35] 0.016 | [36] 0.008 | [37] 0.009 | [38] 0.017 | [39] -0.041 | [40] -0.025 | [41] -0.012 | [42] -0.005 | [43] -0.01 | [44] -0.043 | [45] -0.008 | [46] -0.009 | [47] -0.003 | [48] -0.037
